Assay results reported in US20160215111A1, “MATERIALS AND METHODS” (THE UNIVERSITY OF SYDNEY, priority 2013, published 2016).

Experiment: ATR-FTIR detection of surface-bound peptide (amide bands) before and after Tween-20 washing
Type: physicochemical
Conditions: 2% tween-20 wash at 70° C. (FIG. 2)

In the case of ACLGKACGRKRK [peptide 36], the “peptide associated amide bands after tween-20 washing” value (PIII treated polystyrene) is reported as “still observed” and the “peptide associated amide bands after tween-20 washing” value (untreated polystyrene) is reported as “not on untreated polystyrene”.
